The target in this assay is T1, RTN4IP1-V5-TurboID (reticulon 4-interacting protein 1 fused to V5 and TurboID) (human) (UniProt Q8WWV3).
T1 sequence: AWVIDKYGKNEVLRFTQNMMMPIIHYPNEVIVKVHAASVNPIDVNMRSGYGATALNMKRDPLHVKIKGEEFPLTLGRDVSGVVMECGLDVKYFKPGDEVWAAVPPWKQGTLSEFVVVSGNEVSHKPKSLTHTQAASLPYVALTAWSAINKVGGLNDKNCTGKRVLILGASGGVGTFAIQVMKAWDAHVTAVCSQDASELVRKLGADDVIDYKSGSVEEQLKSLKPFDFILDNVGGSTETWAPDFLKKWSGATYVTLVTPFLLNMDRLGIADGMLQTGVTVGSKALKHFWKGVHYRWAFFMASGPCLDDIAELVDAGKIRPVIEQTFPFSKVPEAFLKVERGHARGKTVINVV
As to the kind of experiment: proximity labelling; RTN4IP1-V5-TurboID stable cells, 5 ng/ml doxycycline 16 h, 50 uM biotin 30 min at 37 °C; biotinylated peptides enriched on streptavidin beads, LC-MS/MS; compared with MTS-TurboID (Matrix-V5-TurboID) control, P < 0.05, FC > 2.

Results are given in words; binding and its absence hold for the method and conditions named. Binding seen in cells or lysates may run through a third protein. A yes stands for co-enrichment or nearness to the bait. Other partners may have been found. Tags and fused reporters may be left off the sequences shown.

B1: COQ3 (enzyme, UniProt Q9NZJ6 86-369)
chain: STSQTTVDSGEVKTFLALAHKWWDEQGVYAPLHSMNDLRVPFIRDNLLKTIPNHQPGKPLLGMKILDVGCGGGLLTEPLGRLGASVIGIDPVDENIKTAQCHKSFDPVLDKRIEYRVCSLEEIVEETAETFDAVVASEVVEHVIDLETFLQCCCQVLKPGGSLFITTINKTQLSYALGIVFSEQIASIVPKGTHTWEKFVSPETLESILESNGLSVQTVVGMLYNPFSGYWHWSENTSLNYAAYAVKSRVQEHPASAEFVLKGETEELQANACTNPAVHEKLKK
Regarding B1, the binding result is on record as “binds”.

B2: COQ5 (enzyme, UniProt Q5HYK3 43-327)
chain: LSQEKRAAETHFGFETVSEEEKGGKVYQVFESVAKKYDVMNDMMSLGIHRVWKDLLLWKMHPLPGTQLLDVAGGTGDIAFRFLNYVQSQHQRKQKRQLRAQQNLSWEEIAKEYQNEEDSLGGSRVVVCDINKEMLKVGKQKALAQGYRAGLAWVLGDAEELPFDDDKFDIYTIAFGIRNVTHIDQALQEAHRVLKPGGRFLCLEFSQVNNPLISRLYDLYSFQVIPVLGEVIAGDWKSYQYLVESIRRFPSQEEFKDMIEDAGFHKVTYESLTSGIVAIHSGFKL
B2: the binding result is given as “binds”.

The values are drawn from paper PMC10830421.
